Reference: article doi:10.1101/2020.08.13.249276
These are yes or no findings as the source states them, for the method shown.

Amino acid sequences for entries named in this document (tags omitted). Residues count along the entry.
UniProt F4J8D3, residues 1062-1176: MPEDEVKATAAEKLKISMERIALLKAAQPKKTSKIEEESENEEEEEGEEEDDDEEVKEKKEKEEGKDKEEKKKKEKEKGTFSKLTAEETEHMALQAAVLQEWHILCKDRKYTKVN

Molecular target: TPLATE anchor (1062-1177) (Arabidopsis) (UniProt F4J8D3)
Assay: SEC-MALS

binding: no binding (tested: 2.1 mg/ml)
Substance: TPLATE anchor (1062-1177) (from UniProt F4J8D3 1062-1176) (domain or fragment)
